Experimental data from publication PMC6795473.
These are yes or no findings as the source states them, for the method shown. In cells and extracts the contact can be indirect. Here binding means that the protein was enriched with, or labelled near, the bait; the list need not be complete. Sequences can lack the tags named with a protein. Blank lines part the entries; values can stand above or below the binder they belong to.

Biological target: IMC localizing protein 1 (ILP1) with C-terminal 3xHA, wild type (T. gondii)
Experiment: affinity purification with mass spectrometry; traditional anti-HA co-IP of ILP1-3xHA after fractionation in 1% Triton X-100 and extensive sonication of the pellet; a gel slice with a unique band analysed by mass spectrometry; RH parasites as control

- binding: binds
B1: IMC6 (endogenous alveolin, untagged) (protein, UniProt S8F8Q1 1-444)
chain: MAQTAPNQSAPTSGFSPMASMGSFAVPSAPPSPLFPTPAAFPGAAPQSQTVPGVATMGSVAGSEVTPFPMYNWHQNRVPVNSGGFFGQCCGPAQVGSDSSSETYDRSYEENMWRWTRDGKLQLRCGQPVVPVPVIQEIHRRDKIIEVPQVDVVDAVRPKVYNQGVEHEVPVMQINADHEDFDVEQIKYVEKEVVVPIVTGFTHKFVAKWDIREVPRPVVKYVGKQEEIEVEVPQVKFVDKVVEHEVVVDTIEKKVPKIIEVPKYVDEVKYVWTPVEKIVHVERFVPVFDVSLECPAPLIVPYPMQAVKEMPAVMVRKEVPEAAITEQGFDIVSPPGTLRVSDEYVRAHHQFAEENAALCGAGTACGAPQKEPEIEFRTANQMKEARAAAQEGHLERGGSFVSQVGTESQVPRPAATDEQAEGSADAGDKQGSRGSSFNSEGEVH

- binding: binds
B2: GAP45 (endogenous glideosome-associated protein) (protein, UniProt Q7Z289 1-245)
chain: MGNACKKNTAKTPTRKEAEDLAEKERQEREAKEKAEAEEKARAEAEKNAADKAEAERRAAEAREREESARKEAEAEAARKAEAEAAEAERLRKEAEKKKAEEAKRKAEEEQRAAAEEAEQRAREEAERRKAEAAAAAERERQMQEALKQEEMSPREKYDKLASPEDSASETTMATQPQKVAEHSSAAVTDRSVVGYTVTPCDMAAIDETAKYLSKRCGCDLGDQHDENECPICRHIDLSDAPLLN
